Data reported in PubChem BioAssay AID493014 (National Center for Advancing Translational Sciences (NCATS), 2011).
The whole screen tested about 340,000 compounds, of which about 170 (0.05%) were called active. The shares of active, inactive and inconclusive entries below differ from those in the screen. Calls come from the whole dose curve; as a rule, active = well fitted inhibition curve with a large enough effect in the signal ratio, with a control signal flat (not every such curve was filed as active); inconclusive = small, poorly fitted or top-dose-only effect, or effect the other way, or a change in a side signal; inactive = flat fitted curve, though single readings scatter; the % refers to the signal ratio. Potencies beside an inconclusive call are fits to weak or partial responses and may not hold up.

Experiment: qHTS Assay to Find Inhibitors of Chronic Active B-Cell Receptor Signaling;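 for activity change, negative = inhibition: plate controls were basal doxycycline-induced cells for no effect and cells given 10 µM MG132 for full effect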
Details: ABC-DLBCL IkBa-CBG/CBR reporter, luminescence ratio (green luciferase fused to IkBa over red control in TMD8 lymphoma cells), 4 h; activity change, negative = inhibition: at 46.1 µM (top of the series)
Excerpt: NIH Molecular Libraries Probe Production Network [MLPCN] NIH Chemical Genomics Center [NCGC] MLPCN Grant: 1 R03 DA031086-01A1 PI Name: Dr. R. Eric Davis NCGC Assay Overview: Diffuse large B-cell lymphoma (DLBCL) is the most common category of non-Hodgkin lymphoma, with ~20,000 new cases per year in the United States. DLBCL should be regarded as a collection of different neoplasms. Microarray gene expression analysis has defined two principal types of DLBCL, named for their similarity to normal B cell stages or activation states: a germinal center B-cell (GCB) type, and an activated B-cell (ABC) type. In ABC-DLBCL, a constitutive high-level activity of the NF-kappaB family of transcription factors has been observed (1) and NF-kappaB target genes are more highly expressed in ABC primary tumors than in GCB tumors. Functional studies have shown a constitutive high-level activity of the IkappaB (inhibitor of kappa-B) kinase (IKK) complex. […] Further analysis of DLBCL primary tumors for NF-kappaB target gene expression imply that although CARD11 is required for constitutive IKK activity in all ABC-DLBCL lines, mutations in CARD11 may be the root cause of IKK activation only in lines or tumors with such mutations. In other words, CARD11 mutations may explain NF-kappaB activation in only 10% of ABC-DLBCL cases. […] This process has been termed 'chronic active BCR signaling' (CABS). The goal of this screen is to find small-molecule inhibitors of the CABS pathway found in ABC-DLBCL lines using a cell-based assay that measures IkappaBalpa stability, which has already been extensively validated in the OCI-Ly3 line (PubChem AID:445; REF: 4). […] The assay uses green (CBG68) and red (CBR) emitting beetle luciferases [Chroma-GloTM developed by Promega Corp.] where the green luciferase is fused to IkappaBalpha and the red luciferase is present in its native state. Both luciferase genes are stably present in the TMD8 human ABC DLBCL cell line, but their expression is under the control of tetracycline-inducible promoters. Following the addition of doxycycline to induce expression of the luciferases, the green luminescence in control cultures rises only slowly because the CBG fusion partner IkappaBalpha is targeted by IKK activity for rapid degradation. In contrast, green luminescence rises rapidly in the presence of proteasome inhibitors or IKK inhibitors. The rise in red luminescence of CBR is not affected by proteasome or IKK inhibitors, and serves as normalization for cell number and nonspecific effects. Compounds were screened as a concentration-titration series that ranged from 46 uM to 3 nM.
NCGC Assay Protocol Summary: Cells were seeded in 1536-well plates at 5000 cells/4uL in IMDM medium containing 0.5% FBS, w/o phenol red, 1% penicillin/streptomycin. Then, 23 nL of compounds or DMSO were delivered to each well using a pin tool. One uL 20ng/ml doxycycline was then dispensed into white solid 1536-well plates and the plates were incubated at 37C/5% C02 in a cell incubator for 4 hrs. Then 4 uL luminescent substrate mix (in-house prepared: 150 mM Tris-Cl, pH 7.6, 3 mM MgCl2, 1% Triton X-100, 5 mM DTT, 0.2 mM CoA, 0.15 mM ATP, 5 mM D-luciferin, final concentrations) was added to each well. The plate was incubated at r.t. for 10-15 min. The plates were measured on a ViewLux plate reader for green luminescence (540/20 nm filter) and red luminescence (618/8 nm filter). The green and red luminescent signals were corrected for red and green luminescence filter overlap using previously determined filter calibration constants (determined using the procedure outlined in the Promega Technical Manual; REF 4). The %Activity was determined from the ratio of corrected green/red luminescent values. MG132 were used as control. […] Red luminescent %Activity was normalized to the difference between red luminesence in basal cells (0%Activity) and zero luminescence (-100% Activity). […]
Potency is the fitted concentration of half-maximal effect.

Structure (SMILES)	activity change, negative = inhibition	Potency
CCCCCN1N=C(C)CC1=O	inactive: -0.8%	
O=C(Oc1ccc(C(=S)N2CCOCC2)cc1)c1cccc(Cl)c1	inconclusive: 0.0036%	
Cc1ccccc1-c1n[nH]c(=S)o1	inactive: -2.38%	
CCCCC(O)(c1ccc(F)cc1)C(CN1CCOCC1)c1ccc(Cl)cc1 (stereo unspecified)	inconclusive: 4.25%	
COc1ccc(CC2CC(=O)N(c3ccc(C)cc3)C2=O)cc1 (stereo unspecified)	inconclusive: 1.99%	
CCOC(=O)CCC(=O)N1CCOCCOCCN(C(=O)CCC(=O)OCC)CCOCC1	inconclusive: -6.19%	
O=C(COC(=O)C1(c2ccc(F)cc2)CCCC1)NCc1ccc2c(c1)OCO2	inconclusive: 1.93%	
COc1ccc(-c2cccc(C(=O)Nc3cccc(C(=O)O)c3)c2)cc1		inconclusive: 2.59 µM [falling, partial curve, poor fit]
O=C(CSCc1ccccc1)N1CCN(c2ccccc2)CC1	inconclusive: -1.12%	
Cn1/c(=N/N=C/c2ccccn2)sc2ccccc21		inconclusive: 15.8 µM [falling, single point]
COC(=O)c1ccc(-c2ccc(/C=N/NC(=O)Cc3nnc(N)s3)o2)cc1		inconclusive: 11.2 µM [falling, single point]
Cc1ccc(C(CCNC(C)c2cccs2)c2ccco2)cc1 (stereo unspecified)	inactive: -9.11%	
CCN(CC)C(=O)c1[nH]cnc1C(=O)N[C@@H](CC(C)C)C(=O)OC(C)(C)C	inactive: 11.1%	
CCOC(=O)N1CCC(N2C(=O)c3ccccc3C2Nc2ccc(Cl)cn2)CC1 (stereo unspecified)		inconclusive: 20.6 µM [rising, partial curve, poor fit]
O=C(NCCNC(=O)c1ccc(Cl)cc1Cl)c1ccccn1	inconclusive: 2.95%	
NS(=O)(=O)c1cccc(NC(=O)COC(=O)CCCc2c[nH]c3ccccc23)c1	inconclusive: -5.96%	
Cc1cccn2c(=O)c3cc(C(=O)NCCCn4ccnc4)n(C)c3nc12	inactive: -2.46%	
O=C(Nc1cccc(Br)c1)c1ccc(OC2CSC2)cc1		inconclusive: 17.8 µM [falling, partial curve]
Oc1ccc(Cl)cc1CNn1cnnc1	inconclusive: -14.3%	
Cc1ccc(/C=N/n2c(COc3ccccc3)n[nH]c2=S)o1	inactive: 6.1%	
Cc1ccc(-c2cc3cccc[n+]3cc2-c2ccc(C)cc2)cc1		inconclusive: 14.6 µM [falling, partial curve, poor fit]

Structure (SMILES)	activity change, negative = inhibition	Potency
CCCCCc1ccc(-c2ccc(C(=O)O)cc2)nc1	inconclusive: 358%	
COc1cccc(NC(=O)c2cc3ccccc3cc2OC)c1	inconclusive: -7.32%	
NNC(=O)c1cccc(COc2cccc(Br)c2)c1		inconclusive: 5.01 µM [falling, full curve, poor fit]
CN(Cc1ccccc1)CC(O)COc1ccc(CNCCc2ccncc2)cc1 (stereo unspecified)	inactive: -9.47%	
COCC(=O)N1CCCN(c2nc3c(C)cccc3cc2C#N)CC1	inconclusive: 11.3%	
COc1ccc(CCNC(=O)CCCN2C(=O)c3ccccc3C2=O)cc1OC		inconclusive: 10 µM [rising, partial curve, poor fit]
Cc1ccccc1NC(=O)NCCc1ccc(Cl)cc1	inconclusive: -16.1%	
COc1cccc(/C=N/NC(=O)c2ccncc2)c1OC(=O)c1ccc(Br)cc1	inactive: -18.3%	
COc1ccc(-c2ccc(C)cc2)cc1[C@H]1[C@@H]2C=CCC[C@@]2(C)C(=O)N1Cc1ccccc1	inactive: 0%	
Cc1ccc(NC(=O)Nc2nnc(SCC(=O)N(C(C)C)C(C)C)s2)cc1	inactive: -0.171%	
COc1ccccc1C1CC(c2ccc(NS(C)(=O)=O)cc2)=NN1C(=O)c1ccccc1 (stereo unspecified)	inconclusive: 1.97%	
CCCC(=O)Nc1sc(C)c(C)c1C#N	inconclusive: -1.63%	
Cc1ccc(C)n1-c1ccc(N2CCOCC2)nc1	inconclusive: 12.2%	
O=[N+]([O-])c1ccc(Nc2nc(N/N=C/c3cccc(F)c3)nc(N3CCCC3)n2)cc1	inconclusive: -2.7%	
N#Cc1cccc(S(=O)(=O)NCC(=O)NCc2ccc3c(c2)OCO3)c1	inconclusive: 0.652%	
COc1cc2nc3c4ccccc4n(CC#N)c3nc2cc1OC	inconclusive: 0.678%	
N/C(=N\OC(=O)CC1CCCCC1)c1cccc([N+](=O)[O-])c1	inconclusive: 4.52%	
CNc1nc(-c2ccccc2)[n+](-c2ccc(C)cc2)s1		inconclusive: 20.6 µM [falling, single point]
CCCCOC(=O)c1ccc(NC(=O)CSC2=Nc3ccccc3C3CC=NN23)cc1 (stereo unspecified)		inconclusive: 6.51 µM [falling, partial curve]
Cn1c(=O)c2c(nc(N3CCCCCC3)n2CC(=O)c2ccc(Br)cc2)n(C)c1=O	inconclusive: 9.34%	
Cc1noc(NS(=O)(=O)c2ccc(NC(=O)CSc3nc4c(cc3C#N)CCCC4)cc2)c1C	inconclusive: 13.8%	

Structure (SMILES)	activity change, negative = inhibition	Potency
COc1ccc(C(=O)COC(=O)/C=C/c2ccccc2[N+](=O)[O-])cc1	inconclusive: 6.21%	
O=C(C1CCCN(S(=O)(=O)c2ccccc2[N+](=O)[O-])C1)N1CCN(c2ccccc2)CC1 (stereo unspecified)	inconclusive: 1.43%	
O=C(CNc1ccccc1Cl)N/N=C1\CCCc2ccccc21	inconclusive: 14.2%	
Cc1cc(O)c(CN2CCN(S(=O)(=O)c3cccs3)CC2)cc1C(C)C	inactive: 0.375%	
CC(=O)c1cccc(NC(=O)c2nc(-c3ccccc3)oc2C)c1	inconclusive: -27.7%	
O=C(COc1ccc([N+](=O)[O-])cc1)Nc1nc(-c2ccccn2)cs1	inconclusive: -14.5%	
O=C(Nc1ccc2c(c1)OCO2)[C@@H]1[C@@H]2C(=O)N(C3CCCCC3)C(=O)[C@@H]2C2c3ccccc3C=CN21 (stereo partly specified)	inactive: -0.16%	
CCOC(=O)c1sc2nc(NC(=O)C(C)(C)C)sc2c1C		inconclusive: 20 µM [falling, partial curve, poor fit]
Cc1cc2cc(CNC(=O)c3cccc([N+](=O)[O-])c3)ccc2n1C	inconclusive: -1.81%	
Cc1cc(F)ccc1S(=O)(=O)N(C(=O)c1ccncc1)c1ccc(OC(=O)c2ccncc2)cc1	inconclusive: -17.8%	
CCOc1ccc(N2CC(NC(=O)c3ccc4c(c3)OCO4)CC2=O)cc1 (stereo unspecified)		inconclusive: 31.6 µM [falling, single point]
CC(C)(C)c1nn(-c2ccccc2)c2[nH]c(=O)c(C=O)cc12	inconclusive: 9.82%	
Cc1ccc(NC(=O)CN2CCC(Cc3ccccc3)CC2)cc1S(=O)(=O)N(C)C	inconclusive: -7.47%	
O=C(CSc1nnc(C2COc3ccccc3O2)o1)Nc1nccs1 (stereo unspecified)		inconclusive: 29.1 µM [falling, single point]
COc1ccc2[nH]c(=O)c(CN(C3CCCCC3)C(c3nnnn3Cc3ccco3)C(C)C)cc2c1 (stereo unspecified)	inconclusive: -2.67%	
COc1ccc2c(c1)OC[C@H]1[C@H]2N2C(=O)c3ccc(C)cc3NC(=O)[C@@]2(C)[C@H]1c1ccccc1	inconclusive: 0.371%	
O=P(c1ccccc1)(c1ccccc1)C(O)c1ccco1 (stereo unspecified)		inconclusive: 29.1 µM [rising, single point]
Cc1ccc(S(=O)(=O)NCC(=O)OCC(=O)N2N=C(c3ccc(Cl)cc3)CC2c2ccco2)cc1C (stereo unspecified)	inconclusive: -4.2%	
CC1(C)SC(=S)N(/N=C/c2ccccc2)C1N(O)C(=O)Nc1ccc([N+](=O)[O-])cc1 (stereo unspecified)	inconclusive: 2.24%	
O=C(N/N=C/c1ccc([N+](=O)[O-])o1)C1CC1	inactive: 7.01%	
CCOC(=O)c1sc2nc(CSc3ccccc3)nc(NCCN(C)C)c2c1C	inconclusive: -15.4%	

Structure (SMILES)	activity change, negative = inhibition	Potency
COc1cccc(OC)c1C(=O)N=c1sc2cc(S(C)(=O)=O)ccc2n1C	inactive: 2.03%	
CC1Cc2nc(SCC(=O)NCc3ccccc3)n(Cc3ccccc3)c(=O)c2S1 (stereo unspecified)	inconclusive: -0.76%	
c1ccc(-c2nc3ccccn3c2NC2CCCC2)nc1		inconclusive: 14.1 µM [falling, partial curve]
O=C(CNC(=O)c1ccc(Cl)c([N+](=O)[O-])c1)NCC1CCCO1 (stereo unspecified)	inactive: 2.4%	
CCN(CC(=O)Nc1ccc(C(C)=O)cc1)CC(=O)Nc1ccc2c(c1)OCCO2		inconclusive: 25.9 µM [falling, partial curve, poor fit]
CCOC(=O)c1ccc(NC(=O)C2=C(C)Nc3nc(CCCO)nn3C2c2cccc(C)c2)cc1 (stereo unspecified)	inconclusive: -14.3%	
CC(NC(=O)C1CCC(CNc2c(N3CCCCC3)c(=O)c2=O)CC1)c1ccccc1 (stereo unspecified)	inconclusive: 0.707%	
O=P(O)(O)c1ccccc1OCc1ccccc1	inconclusive: 3.97%	
CCCN(CC(=O)Nc1cc(Cl)ccc1Cl)C(=O)c1ccccc1SCC(=O)N1CCCC1	inconclusive: 4.43%	
COc1ccc(NC(=O)COC(=O)c2ccc([N+](=O)[O-])o2)cc1Cl	inconclusive: -2.66%	
O=C(CSC(=O)c1ccccc1)Nc1ccccc1F		inconclusive: 29.1 µM [falling, single point]
O=C(COC(=O)[C@@H]1CCCN1C(=O)c1cccs1)Nc1cccc([N+](=O)[O-])c1	inactive: -4.28%	
Cc1ccc(NN2C(=O)C=C(c3ccccc3)C2=O)cc1	inconclusive: 15.7%	
Cc1sc2ncnc(N)c2c1C	inactive: -3.87%	
COc1ccc(-c2oc3cc(OC)c(O)c(OC)c3c(=O)c2OC)cc1O	inactive: -17.7%	
Cc1ccc2c(c1)COc1c3ccc(C(=O)NCC4CC4)cc3nn1-2	inconclusive: 16.2%	
Cc1cc(NC(=O)COc2ccccc2C)ccc1NC(=O)c1ccco1		inconclusive: 35.5 µM [falling, single point]

Single records, as listed above:
Cc1cc(NC(=O)COc2ccccc2C)ccc1NC(=O)c1ccco1 is listed as Potency: inconclusive: 35.5 µM [falling, single point]
Cc1ccc(NN2C(=O)C=C(c3ccccc3)C2=O)cc1 is listed as activity change, negative = inhibition: inconclusive: 15.7%
CC(NC(=O)C1CCC(CNc2c(N3CCCCC3)c(=O)c2=O)CC1)c1ccccc1 (stereo unspecified) is listed as activity change, negative = inhibition: inconclusive: 0.707%
c1ccc(-c2nc3ccccn3c2NC2CCCC2)nc1 is listed as Potency: inconclusive: 14.1 µM [falling, partial curve]
